Laboratory results reported in PubChem BioAssay AID493014 (National Center for Advancing Translational Sciences (NCATS), 2011).
The other results are listed elsewhere or left out. Shown are side measurements of this screen, not its main read-out; they come without a call. The list favours compounds with an active or inconclusive main result. The note in brackets gives the kind of curve behind each potency; many fits are weak.

Assay: qHTS Assay to Find Inhibitors of Chronic Active B-Cell Receptor Signaling
Details: ABC-DLBCL IkBa-CBG/CBR reporter, luminescence ratio (green luciferase fused to IkBa over red control in TMD8 lymphoma cells), 4 h
Summary of the method: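 TMD8 human ABC-DLBCL cells with doxycycline-inducible IκBα–green luciferase fusion and unfused red luciferase, in 0.5% FBS medium; compounds up to 46 uM, 4 h at 37C. Green/red luminescence ratio, filter-overlap corrected, fitted to concentration-response curves.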

[1] = measured here: IkBa-CBG green luminescence
[2] = measured here: CBR red luminescence, cell number

## COc1cc(NC(=O)c2cccs2)ccc1NC(=O)c1ccccc1Cl
[1]
  AC50: 4.47 µM [rising, full curve, poor fit]

## COc1ccc(CCNC(=S)c2ccccc2)cc1OC
[2]
  AC50: 3.98 µM [rising, full curve, poor fit]

## Brc1ccccc1C1CC(c2ccccc2)=Nc2ccccc2N1 (configuration not stated)
[2]
  AC50: 23.1 µM [falling, partial curve, poor fit]

## C/C(=N/NC(=O)c1ccc2c(c1)OCCO2)c1ccc([N+](=O)[O-])cc1
[2]
  AC50: 35.5 µM [falling, single point]

## C=CCn1c(N)c(C(=O)NCc2cccnc2)sc1=S
[2]
  AC50: 8.2 µM [rising, partial curve, poor fit]

## COc1ccc2c(Cl)c(-c3nnc(SCC(=O)c4ccccc4)n3C)sc2c1
[2]
  AC50: 29.1 µM [rising, single point]

## O=C(N/N=C/c1ccccc1OCC(=O)N1CCCC1)C(=O)Nc1ccccc1F
[2]
  AC50: 0.146 µM [falling, full curve]

## CCOC(=O)C1=C(C)NC(=S)N(C(C)=O)C1c1ccc(Cl)cc1 (configuration not stated)
[2]
  AC50: 0.326 µM [falling, full curve, poor fit]

## CC(C)Cn1c(=O)c2c(nc3n2CCCN3CCc2ccccc2)n(C)c1=O
[2]
  AC50: 11.2 µM [falling, partial curve, poor fit]

## CC(C)(C)c1cccc(Cn2nnc3ccccc32)c1O
[2]
  AC50: 13 µM [falling, partial curve, poor fit]

## Fc1ccc(C(CCNCc2ccccn2)c2ccc(Cl)cc2)cc1 (configuration not stated)
[2]
  AC50: 35.5 µM [falling, single point]

## O=C(NC(=S)NCCc1ccccc1)c1ccco1
[2]
  AC50: 3.16 µM [rising, partial curve, poor fit]

## Cc1oc(-c2ccc3c(c2)OCCO3)cc1C(=O)O
[2]
  AC50: 0.316 µM [falling, full curve, poor fit]

## COC(=O)C1=C(N)Oc2cc(C)n(CC3CCCO3)c(=O)c2C1c1ccccc1OC (configuration not stated)
[2]
  AC50: 6.31 µM [falling, single point]

## CCn1cnc2sc(C(=O)O)c(C)c2c1=O
[2]
  AC50: 1.16 µM [rising, single point]

## Fc1ccc(Nc2nc(SCc3cccc(Cl)c3)nc3ccccc23)cc1
[1]
  AC50: 17.8 µM [rising, single point]

## O=C(Nc1cccc(C(=O)O)c1)Nc1ccc2c(c1)OCO2
[2]
  AC50: 0.447 µM [falling, full curve]

## O=C1CC(c2ccco2)Cc2nc(N3CCc4ccccc4C3)ncc21 (configuration not stated)
[2]
  AC50: 2.24 µM [rising, full curve, poor fit]

## CCCCNCc1ccc(OCc2ccc(Cl)nc2)c(OC)c1
[2]
  AC50: 14.1 µM [rising, single point]

## c1ccc(-c2nc(-c3cccs3)[nH]c2-c2ccccc2)cc1
[2]
  AC50: 1.58 µM [falling, full curve, poor fit]

## Cc1ccc2nc(Cl)c3cc(C(=O)NCCCN4CCCC4)sc3c2c1
[2]
  AC50: 15.8 µM [falling, partial curve, poor fit]

## CCOc1ccc(NC(=O)CN2CCN(CC(=O)Nc3ccc(F)cc3)CC2)cc1
[2]
  AC50: 6.31 µM [falling, single point]

## COC(=O)c1cc(-c2ccc(OC)c(OC)c2)n[nH]1
[2]
  AC50: 1.64 µM [rising, partial curve, poor fit]

## C=CCC[C@@H](Cc1ccc(F)cc1)C(=O)OCCNC(=O)[C@@H](CC=C)CC(=O)N[C@H](CO)Cc1ccccc1
[2]
  AC50: 20.6 µM [falling, single point]

## O=C(c1ccc(COCC(F)(F)F)o1)N1CCCCCC1
[2]
  AC50: 14.1 µM [rising, single point]

## CS(=O)(=O)c1ccc(C(=O)OCC(=O)NNC(=O)COc2ccc(Cl)cc2)cc1
[2]
  AC50: 2.31 µM [rising, full curve, poor fit]

## Cc1ccc(OCCCCn2cnc3ccccc32)cc1
[2]
  AC50: 35.5 µM [falling, single point]

## CN(C)c1ccc(NC(=O)c2ccc3nc[nH]c3c2)cc1
[2]
  AC50: 15.8 µM [falling, single point]

## C=CCOc1ccccc1CNc1ccc2c(c1)OCCO2
[2]
  AC50: 35.5 µM [falling, single point]

## CC(=O)c1cc(-c2ccccc2)n(CC(=O)N2CCC(C)CC2)c1C
[2]
  AC50: 14.6 µM [rising, partial curve, poor fit]

## Cc1ccccc1NS(=O)(=O)c1cc(C(=O)NCCC2=CCCCC2)ccc1Cl
[2]
  AC50: 7.08 µM [falling, partial curve, poor fit]

## Clc1cccc(CN2CCc3c([nH]c4ccccc34)C2)c1
[2]
  AC50: 8.91 µM [falling, partial curve, poor fit]
